This is one part of the list. Further columns of the screen follow, without active or inactive calls. Compounds called inactive in the main read-out are mostly missing here. Words in brackets tell the shape of the fitted curve; partial curves, single points and poor fits give uncertain potencies.

This assay can be described thus: IkB Signaling. Particulars: ABC-DLBCL IkBa-CBG/CBR dual luciferase ratio (green luciferase fused to IkBa over red control in OCI-Ly3 lymphoma cells), 4 h. An outline of the steps: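 In this assay, an IκBα–CBG68 fusion accumulates when IKK-driven degradation is blocked; native CBR normalizes for cell number. OCI-Ly3 cells were treated 4 h with compound and doxycycline, then green and red light read after Chroma-Glo addition.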
Where [1] appears, read: measured here: control luc red channel unless noted.
[2] abbreviates: measured here: IkB-luc green channel.
Setting [3] is: measured here: control luc red channel.

`O=C(CN1CCCN(Cc2ccccc2Cl)S1(=O)=O)Nc1ccc2c(c1)OCCO2`: under setting [1], the AC50 is 20 µM [falling, partial curve].
Still for that read-out and setting: in the case of `CCN(CC)c1ccc(NC(=O)Nc2cccc(C(C)=O)c2)cc1` it was 15.8 µM [falling, partial curve]; in that of `CCn1c2ccccc2c2nnc(N3CCN(c4cccc(C)c4C)CC3)nc21`, 15.8 µM [falling, partial curve].
For `O=C(NCCCN1CCOCC1)c1ccc2c(c1)N(Cc1ccccc1)C(=O)c1ccccc1S2`, the AC50 under setting [1] is 15.8 µM [falling, single point].
The same measure, in the same setting: in the case of `CC1=C(C(=O)Nc2ccccc2)C(c2ccco2)C(C#N)=C(SCc2ccccc2)N1` (stereo not given) it was 6.31 µM [falling, partial curve]; in that of `CCOc1ccc(NC(=O)NC(C)c2c(-n3cccc3)sc(C)c2C)cc1` (stereo not given), 31.6 µM [falling, single point].
Still for that read-out and setting: with `Cc1cccc(OCCCCn2nnc3sc4c(c3c2=O)CCC(C)C4)c1` (stereo not given) the figure was 25.1 µM [falling, single point]; with `COc1ccccc1NC(=O)Cn1c(=O)n(Cc2ccccc2)c(=O)c2ccccc21`, 0.0251 µM [falling, full curve].
Still for that read-out and setting: with `CC(=O)N[C@@H](Cc1c[nH]c2ccccc12)C(=O)OCc1cc(C(F)(F)F)cc(C(F)(F)F)c1` the figure was 39.8 µM [falling, partial curve].
For `COc1cccc2c1Oc1nc(-c3ccccc3)nc(SCC(=O)N3CCCCC3)c1C2`, the AC50 under setting [1] was 10 µM [falling, partial curve].
On the same count and under the same terms, in the case of `COc1ccc(CN2COc3ccc4c(C)cc(=O)oc4c3C2)cc1` it was 3.98 µM [rising, partial curve, poor fit].
Turning to `COC(=O)c1ccc(NC(=O)Nc2nnc(N(C)C3CCCCC3)s2)cc1`, the AC50 under setting [1] is 31.6 µM [falling, single point].
On the same count and under the same terms, with `N#CC1=C(SCc2ccccc2)NC(=O)C(C#N)C12CCCC2` (stereo not given) the figure was 25.1 µM [falling, partial curve]; with `Cc1cc(NC(=O)CS(=O)(=O)c2cn(Cc3ccccc3Cl)c3ccccc23)no1`, 12.6 µM [falling, partial curve]; with `COC(=O)c1ccc(NC(=O)Cc2coc3cc(C)ccc23)cc1`, 39.8 µM [falling, single point].
With `CCOc1ccc(-c2ccc(NS(=O)(=O)c3cc(C)c(C)cc3C)cc2)nn1`, the AC50 under setting [1] is 20 µM [falling, partial curve].
Still for that read-out and setting: in the case of `O=C1CCCC2=C1C(c1ccco1)Nc1ccc(C(=O)c3ccccc3)cc1N2` (stereo not given) it was 10 µM [falling, partial curve]; in that of `CCN(C(=O)COc1cc(=O)n(C)c2ccccc12)c1cccc(C(F)(F)F)c1`, 20 µM [falling, partial curve].
With `Cc1nn(-c2ccccc2)c(C)c1C(=O)OCC(=O)N1CCN(S(=O)(=O)c2ccccc2)CC1`, the AC50 under setting [1] was 7.94 µM [falling, partial curve].
Still for that read-out and setting: with `Cc1ccccc1CN1CCc2nc(Nc3ccc4c(c3)OCCO4)ncc2C1` the figure was 25.1 µM [falling, partial curve]; with `CCOc1ccc(CCNC(=O)c2ccc(CS(=O)(=O)Cc3ccccc3Cl)o2)cc1OCC`, 39.8 µM [falling, single point].
On the same count and under the same terms, in the case of `CCOc1ccc(C(=O)Nc2ccc(-c3nc4cc(CC)ccc4o3)cc2)cc1` it was 6.31 µM [falling, single point]; in that of `O=C(c1cc2c(=O)[nH]c3ccccc3c2s1)N1CCN(c2ccc(F)cc2)CC1`, 31.6 µM [falling, partial curve].
On the same count and under the same terms, in the case of `CC(NC(=O)CCn1c(=O)c2cccn2c2ccc(F)cc21)c1ccccc1` (stereo not given) it was 39.8 µM [falling, single point]; in that of `COc1cccc(NC(=O)CCc2nc(-c3cc(OC)c(OC)c(OC)c3)no2)c1`, 12.6 µM [falling, partial curve].
Consider `CCOC(=O)c1ccc(NC(=O)c2cc3c(=O)n(C)c4ccccc4c3n2C)cc1`, for which the AC50 under setting [1] was 2 µM [falling, partial curve].
Same read-out and setting: with `COc1cc2c(C(=O)N3CCN(c4ccc(C)cc4)C(C)C3)cn(CC(C)C)c(=O)c2cc1OC` (stereo not given) the figure was 25.1 µM [falling, single point]; with `Cn1c2ccccc2c2cc(C(=O)OCC(=O)N3CC(=O)Nc4ccccc43)sc21`, 12.6 µM [falling, partial curve]; with `COc1ccc(N2CCN(C(=O)Cc3noc4ccc(C)cc34)CC2)cc1`, 15.8 µM [falling, partial curve].
The same measure, in the same setting: with `CCc1ccc(NC(=O)Cn2ccn(-c3cccc(Cl)c3)c(=O)c2=O)cc1` the figure was 20 µM [falling, single point]; with `Cn1c(C(=O)N2CCN(Cc3ccc4c(c3)OCO4)CC2)cc2c(=O)n(C)c3ccccc3c21`, 12.6 µM [falling, partial curve].
As for `COc1ccc(/C=C/c2nc(C#N)c(NC3CCCCC3)o2)cc1OC`, the concentration at half-maximal activity (AC50) under setting [1] was 39.8 µM [falling, single point].
For the molecule `CCOc1ccc(S(=O)(=O)N(CC(=O)Nc2cc(C)on2)Cc2ccccc2Cl)cc1`, the AC50 under setting [1] was 25.1 µM [falling, partial curve].
On the same count and under the same terms, with `CCc1cccc(C)c1Nc1c(-c2cccc(O)c2)nc2cnccn12` the figure was 0.1 µM [falling, full curve, poor fit]; with `CCOc1ccccc1NC(=O)Cn1nc2c3cc(F)ccc3n(Cc3cccc(C)c3)cc-2c1=O`, 10 µM [falling, partial curve]; with `CCC(=O)N1CCN(c2nc(C)nc3sc(C)c(C)c23)CC1`, 25.1 µM [falling, partial curve].
The same measure, in the same setting: with `CC1CCCN(c2csc3ccccc3c2=O)C1` (stereo not given) the figure was 5.01 µM [falling, partial curve]; with `CCCN(Cc1cccs1)C(=O)Nc1ccccc1C`, 31.6 µM [falling, single point]; with `O=C(CN1CCN(S(=O)(=O)c2ccc(Br)cc2)CC1)Nc1ccc(F)cc1F`, 2.51 µM [falling, full curve].
For the molecule `O=c1/c(=C\c2ccc3c(c2)OCO3)sc2n1CCCN=2`, under setting [1], the AC50 was 20 µM [falling, partial curve].
For the molecule `Cc1nc2sccn2c(=O)c1S(=O)(=O)NCc1ccccc1`, under setting [1], the AC50 is 20 µM [falling, partial curve].
Still for that read-out and setting: with `COc1ccc(Nc2nnc(-c3ccc(C)c(S(=O)(=O)N4CCN(C)CC4)c3)c3ccccc23)cc1` the figure was 15.8 µM [falling, partial curve]; with `COc1ccc2sc(NC(=O)c3ccco3)nc2c1`, 2.51 µM [falling, full curve].
With `Cc1ccc(C)c(N2CCN(C(=O)c3ccc4c(c3)c(C)c(C)n4C)CC2)c1`, the half-maximal activity concentration (AC50) under setting [1] was 25.1 µM [falling, partial curve].
The same measure, in the same setting: with `CCOc1ccccc1C1CC(=O)NC(C)=C1C(=O)OCc1ccc(C)cc1` (stereo not given) the figure was 39.8 µM [falling, single point]; with `C=C(C)COc1ccc(-c2nc(N)ncc2Oc2ccccc2OCC)c(O)c1`, 5.01 µM [falling, partial curve].
For the molecule `CCCCn1c(NC(=O)c2ccc(F)cc2)c(C#N)c2nc3ccccc3nc21`, the AC50 is, setting by setting: under setting [2], 3.98 µM [rising, single point]; under setting [3], 0.501 µM [falling, full curve].
As to `Cc1oc2c(c1C(=O)Nc1ccc(Cl)cc1F)C1=NCCN1C=N2`, under setting [1], the AC50 was 12.6 µM [falling, partial curve].
For `Cc1cccc(C)c1OCC(=O)N(Cc1ccc(Cl)cc1)CC1CCCO1` (stereo not given), the AC50 under setting [1] is 12.6 µM [falling, single point].
As for `COc1ccc(OC)c(CNC(=O)CCCn2nc(C)c3c(C)n(-c4ccc(C)cc4)nc3c2=O)c1`, the AC50 under setting [1] was 5.01 µM [falling, partial curve].
Turning to `CCn1ccc2cc(S(=O)(=O)N3CCCN(C(=O)Nc4cc(Cl)ccc4C)CC3)ccc21`, the AC50 under setting [1] was 0.251 µM [falling, full curve].
Turning to `Cc1c(NC(=O)c2ccccc2N)cccc1C(=O)O`, the AC50 was 0.0794 µM [rising, full curve, poor fit] under setting [2] and 12.6 µM [falling, partial curve] under setting [3].
For the molecule `C=CCOc1ccccc1/C=N/O`, the AC50 under setting [1] was 20 µM [falling, partial curve].
Take `O=C(/C=C/Nc1ccc(F)cc1)c1ccco1`: the AC50 under setting [1] is 15.8 µM [falling, partial curve].
Still for that read-out and setting: in the case of `COc1ccc2c(c1)-c1nc(NC(=O)c3ccc(C)cc3)sc1CC2` it was 7.94 µM [falling, partial curve]; in that of `N#C/C(=C\c1c[nH]c2ccccc12)C(=O)c1ccc(O)c(O)c1`, 2.51 µM [falling, full curve].
Same read-out and setting: in the case of `CC1CCN(C(=O)c2cc(-c3cccc(Cl)c3)on2)CC1` it was 15.8 µM [falling, partial curve]; in that of `COc1ccc(-c2noc(-c3ccc(NCCc4ccccc4)c([N+](=O)[O-])c3)n2)cc1OC`, 25.1 µM [falling, single point].
Same read-out and setting: in the case of `COC(=O)c1ccc(Cl)cc1NC(=O)N(C)CCc1c(C)nn(C)c1C` it was 6.31 µM [rising, single point].
For `CCOC(=O)c1ccc(NC(=O)c2csc3c2CCCCC3)cc1`, the AC50 under setting [1] was 2.51 µM [falling, partial curve].
Still for that read-out and setting: with `Cc1ccc(-n2ccnc(NCCc3ccc(S(N)(=O)=O)cc3)c2=O)cc1C` the figure was 2 µM [rising, partial curve] [measured here: IkB-luc green channel]; with `CCC1CCCCN1C(=O)CSc1nc2c([nH]c3ccccc32)c(=O)n1-c1cccc(OC)c1` (stereo not given), 39.8 µM [falling, partial curve]; with `O=C(COc1ccccc1Cl)Nc1ccc(Cl)c(-c2nc3ccccc3o2)c1`, 15.8 µM [rising, partial curve].

For the origin of these results see PubChem BioAssay AID445 (National Center for Advancing Translational Sciences (NCATS), 2006).
